Results are given in words; binding and its absence hold for the method and conditions named. In cells and extracts the contact can be indirect. Some binding calls cover weakened binding; strength is not graded here.
What was measured:
[1] = target: TET1 (mouse (endogenous in NIH3T3)) (UniProt Q3URK3); test: co-IP; co-immunoprecipitation of endogenous TET1 and PARP-1 from NIH3T3 cell lysates; protocol in Additional file 3 (not shown)
[2] = target: poly(ADP-ribose) polymerase-1 (mouse (endogenous in NIH3T3)) (UniProt P11103); test: as above

Protein sequences, listed by entry. Tags and fused reporters are not part of them.
UniProt Q3URK3: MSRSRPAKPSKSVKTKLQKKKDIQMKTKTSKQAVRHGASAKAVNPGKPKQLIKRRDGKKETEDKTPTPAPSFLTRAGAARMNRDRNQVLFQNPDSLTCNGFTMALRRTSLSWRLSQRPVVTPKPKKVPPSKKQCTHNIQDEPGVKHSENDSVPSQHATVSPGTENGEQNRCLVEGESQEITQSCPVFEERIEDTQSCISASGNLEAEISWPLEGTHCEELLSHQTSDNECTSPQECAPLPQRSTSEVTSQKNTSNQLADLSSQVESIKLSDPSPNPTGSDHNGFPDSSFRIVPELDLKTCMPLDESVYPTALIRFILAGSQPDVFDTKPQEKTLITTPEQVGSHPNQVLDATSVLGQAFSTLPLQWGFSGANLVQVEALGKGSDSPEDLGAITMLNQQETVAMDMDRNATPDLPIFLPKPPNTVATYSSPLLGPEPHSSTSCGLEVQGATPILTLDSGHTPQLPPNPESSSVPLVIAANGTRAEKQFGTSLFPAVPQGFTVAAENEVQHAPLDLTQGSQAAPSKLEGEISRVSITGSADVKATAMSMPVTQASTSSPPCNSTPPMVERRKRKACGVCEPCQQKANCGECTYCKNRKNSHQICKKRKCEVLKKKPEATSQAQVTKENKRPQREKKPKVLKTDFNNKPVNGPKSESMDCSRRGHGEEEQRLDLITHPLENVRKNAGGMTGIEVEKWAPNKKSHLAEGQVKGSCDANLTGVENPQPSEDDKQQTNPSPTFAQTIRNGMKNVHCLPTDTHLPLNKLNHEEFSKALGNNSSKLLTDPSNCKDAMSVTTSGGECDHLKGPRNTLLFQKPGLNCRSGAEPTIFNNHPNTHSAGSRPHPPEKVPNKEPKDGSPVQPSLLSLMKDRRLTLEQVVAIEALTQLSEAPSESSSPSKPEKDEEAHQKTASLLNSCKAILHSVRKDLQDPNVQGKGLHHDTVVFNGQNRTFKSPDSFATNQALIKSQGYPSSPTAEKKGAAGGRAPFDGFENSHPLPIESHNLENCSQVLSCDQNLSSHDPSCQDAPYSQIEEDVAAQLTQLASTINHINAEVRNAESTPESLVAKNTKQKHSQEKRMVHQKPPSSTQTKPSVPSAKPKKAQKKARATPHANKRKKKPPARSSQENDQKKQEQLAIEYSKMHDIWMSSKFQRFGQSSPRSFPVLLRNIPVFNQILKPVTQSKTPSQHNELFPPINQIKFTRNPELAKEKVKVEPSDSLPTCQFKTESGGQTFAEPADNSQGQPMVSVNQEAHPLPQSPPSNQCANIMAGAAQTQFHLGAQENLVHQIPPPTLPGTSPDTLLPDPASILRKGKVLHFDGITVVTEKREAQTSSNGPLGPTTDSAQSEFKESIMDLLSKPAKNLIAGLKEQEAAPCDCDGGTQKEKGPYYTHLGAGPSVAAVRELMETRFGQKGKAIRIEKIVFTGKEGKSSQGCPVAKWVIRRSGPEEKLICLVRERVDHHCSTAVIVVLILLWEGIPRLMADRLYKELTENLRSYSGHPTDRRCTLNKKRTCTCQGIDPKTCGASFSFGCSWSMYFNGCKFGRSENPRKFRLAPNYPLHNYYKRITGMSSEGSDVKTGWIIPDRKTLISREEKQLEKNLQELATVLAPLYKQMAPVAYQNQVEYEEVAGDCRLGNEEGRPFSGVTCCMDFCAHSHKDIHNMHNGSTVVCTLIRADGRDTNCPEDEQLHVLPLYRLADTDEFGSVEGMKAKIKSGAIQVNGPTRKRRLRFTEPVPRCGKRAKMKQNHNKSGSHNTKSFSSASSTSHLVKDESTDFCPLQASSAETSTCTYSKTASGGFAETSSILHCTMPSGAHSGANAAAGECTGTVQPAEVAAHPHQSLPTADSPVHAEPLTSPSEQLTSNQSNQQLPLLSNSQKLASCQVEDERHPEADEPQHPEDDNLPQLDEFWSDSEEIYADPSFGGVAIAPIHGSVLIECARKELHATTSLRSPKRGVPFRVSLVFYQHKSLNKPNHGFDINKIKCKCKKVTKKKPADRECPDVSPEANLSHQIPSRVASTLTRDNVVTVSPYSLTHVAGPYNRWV
UniProt P11103: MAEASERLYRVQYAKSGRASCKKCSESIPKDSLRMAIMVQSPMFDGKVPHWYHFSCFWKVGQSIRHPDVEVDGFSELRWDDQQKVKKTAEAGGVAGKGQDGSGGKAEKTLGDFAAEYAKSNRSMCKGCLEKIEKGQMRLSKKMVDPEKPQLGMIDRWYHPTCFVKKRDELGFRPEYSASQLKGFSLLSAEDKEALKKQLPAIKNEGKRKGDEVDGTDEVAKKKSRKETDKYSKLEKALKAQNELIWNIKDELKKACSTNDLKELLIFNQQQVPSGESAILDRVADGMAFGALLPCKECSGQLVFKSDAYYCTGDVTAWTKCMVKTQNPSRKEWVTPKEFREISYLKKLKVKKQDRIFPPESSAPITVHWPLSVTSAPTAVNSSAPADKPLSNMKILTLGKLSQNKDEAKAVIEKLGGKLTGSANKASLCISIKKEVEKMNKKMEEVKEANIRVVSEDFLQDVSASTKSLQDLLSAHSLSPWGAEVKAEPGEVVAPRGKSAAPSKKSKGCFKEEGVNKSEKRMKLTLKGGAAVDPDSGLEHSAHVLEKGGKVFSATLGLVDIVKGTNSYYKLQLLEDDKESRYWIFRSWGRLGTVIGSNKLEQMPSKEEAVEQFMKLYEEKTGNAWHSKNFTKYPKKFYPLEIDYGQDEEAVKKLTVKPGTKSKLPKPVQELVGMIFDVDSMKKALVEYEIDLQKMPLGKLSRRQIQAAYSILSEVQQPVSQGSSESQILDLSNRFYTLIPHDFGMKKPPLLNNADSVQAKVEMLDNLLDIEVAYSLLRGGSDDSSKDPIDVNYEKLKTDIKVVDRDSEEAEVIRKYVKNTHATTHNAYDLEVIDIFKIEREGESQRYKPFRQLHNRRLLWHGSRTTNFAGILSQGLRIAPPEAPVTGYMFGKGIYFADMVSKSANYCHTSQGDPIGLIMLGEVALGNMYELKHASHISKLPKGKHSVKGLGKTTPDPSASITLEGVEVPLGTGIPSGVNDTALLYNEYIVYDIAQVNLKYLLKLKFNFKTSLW

Row | binding [1] | binding [2] | Substance
1 | binds | – | poly(ADP-ribose) polymerase-1 (from UniProt P11103 1-1013)
2 | – | binds | TET1 (from UniProt Q3URK3 1-2039)

Source: article PMC8985375
